Data published in the supplement of paper PMC12823440, “Inhibitors supercharge kinase turnover through native proteolytic circuits” (Nature, 2025).
Counter-ions that a name gives are not always drawn. The list shows a part of the results. The calls rarely recur for the same compound in another form.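 Kinases, fused to nanoluciferase, were expressed in K562 cells; luminescence was measured every 4 h from 2 to 18 h as percent of control (DMSO = 100%, positive control = 0%). A time point is decreased if signal falls significantly (2 sigma). Hits were called by the authors by a rule that is not shown; the count of time points alone does not decide it.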

The chains behind the UniProt entries cited, without tags or fusion partners. Where a name states a change or a piece, a line headed by the entry shows the natural chain unless it says otherwise.
UniProt O75460: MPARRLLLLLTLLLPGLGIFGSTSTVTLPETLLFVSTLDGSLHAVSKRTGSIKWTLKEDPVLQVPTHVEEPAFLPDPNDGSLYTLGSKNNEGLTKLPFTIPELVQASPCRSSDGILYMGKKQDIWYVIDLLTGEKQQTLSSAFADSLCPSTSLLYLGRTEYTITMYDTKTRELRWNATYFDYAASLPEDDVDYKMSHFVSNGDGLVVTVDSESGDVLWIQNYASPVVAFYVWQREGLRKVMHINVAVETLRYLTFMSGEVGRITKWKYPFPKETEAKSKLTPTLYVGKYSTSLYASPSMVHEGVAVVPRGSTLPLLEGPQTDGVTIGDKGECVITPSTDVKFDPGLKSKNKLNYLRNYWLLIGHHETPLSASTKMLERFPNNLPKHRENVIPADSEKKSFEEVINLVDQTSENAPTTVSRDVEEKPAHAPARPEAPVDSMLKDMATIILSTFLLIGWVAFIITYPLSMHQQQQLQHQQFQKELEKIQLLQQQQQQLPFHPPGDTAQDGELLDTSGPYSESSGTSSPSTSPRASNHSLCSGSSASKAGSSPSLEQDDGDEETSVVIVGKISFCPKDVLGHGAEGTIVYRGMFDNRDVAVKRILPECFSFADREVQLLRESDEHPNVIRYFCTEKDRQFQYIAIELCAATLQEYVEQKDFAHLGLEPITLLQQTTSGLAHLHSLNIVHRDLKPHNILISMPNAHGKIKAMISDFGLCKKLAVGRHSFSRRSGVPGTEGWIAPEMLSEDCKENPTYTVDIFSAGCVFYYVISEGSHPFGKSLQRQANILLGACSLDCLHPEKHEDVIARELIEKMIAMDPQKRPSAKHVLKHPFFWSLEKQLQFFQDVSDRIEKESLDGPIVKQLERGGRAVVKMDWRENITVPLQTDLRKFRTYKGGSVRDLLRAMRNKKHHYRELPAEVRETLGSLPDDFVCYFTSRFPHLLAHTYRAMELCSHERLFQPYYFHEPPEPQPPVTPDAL
UniProt P06241, whole entry, looked up: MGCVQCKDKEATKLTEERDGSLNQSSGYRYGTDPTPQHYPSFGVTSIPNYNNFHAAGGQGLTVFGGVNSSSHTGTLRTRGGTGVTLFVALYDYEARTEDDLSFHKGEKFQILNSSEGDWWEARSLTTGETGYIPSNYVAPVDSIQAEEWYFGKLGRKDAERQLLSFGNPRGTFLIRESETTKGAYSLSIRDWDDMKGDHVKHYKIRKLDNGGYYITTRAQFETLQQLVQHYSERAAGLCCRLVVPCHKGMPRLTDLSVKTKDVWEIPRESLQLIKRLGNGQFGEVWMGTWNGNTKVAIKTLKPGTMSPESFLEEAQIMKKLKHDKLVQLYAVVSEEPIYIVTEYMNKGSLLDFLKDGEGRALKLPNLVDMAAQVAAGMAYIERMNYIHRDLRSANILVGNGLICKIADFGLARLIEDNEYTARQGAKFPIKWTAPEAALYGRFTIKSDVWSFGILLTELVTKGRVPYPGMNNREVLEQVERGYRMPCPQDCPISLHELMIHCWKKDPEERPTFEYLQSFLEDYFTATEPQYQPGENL
UniProt P06239: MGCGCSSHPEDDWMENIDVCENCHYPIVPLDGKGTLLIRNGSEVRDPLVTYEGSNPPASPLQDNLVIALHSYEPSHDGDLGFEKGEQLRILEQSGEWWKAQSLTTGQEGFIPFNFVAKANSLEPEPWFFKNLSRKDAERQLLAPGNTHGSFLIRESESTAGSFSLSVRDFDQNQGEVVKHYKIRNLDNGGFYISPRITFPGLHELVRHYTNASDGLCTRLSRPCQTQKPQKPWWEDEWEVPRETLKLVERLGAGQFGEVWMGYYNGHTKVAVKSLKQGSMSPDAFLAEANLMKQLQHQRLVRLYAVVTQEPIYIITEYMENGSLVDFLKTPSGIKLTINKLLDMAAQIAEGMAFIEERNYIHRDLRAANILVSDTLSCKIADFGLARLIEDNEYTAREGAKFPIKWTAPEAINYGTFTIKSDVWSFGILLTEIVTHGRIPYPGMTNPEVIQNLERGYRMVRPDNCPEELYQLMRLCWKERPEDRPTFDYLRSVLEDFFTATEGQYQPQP
UniProt P53667: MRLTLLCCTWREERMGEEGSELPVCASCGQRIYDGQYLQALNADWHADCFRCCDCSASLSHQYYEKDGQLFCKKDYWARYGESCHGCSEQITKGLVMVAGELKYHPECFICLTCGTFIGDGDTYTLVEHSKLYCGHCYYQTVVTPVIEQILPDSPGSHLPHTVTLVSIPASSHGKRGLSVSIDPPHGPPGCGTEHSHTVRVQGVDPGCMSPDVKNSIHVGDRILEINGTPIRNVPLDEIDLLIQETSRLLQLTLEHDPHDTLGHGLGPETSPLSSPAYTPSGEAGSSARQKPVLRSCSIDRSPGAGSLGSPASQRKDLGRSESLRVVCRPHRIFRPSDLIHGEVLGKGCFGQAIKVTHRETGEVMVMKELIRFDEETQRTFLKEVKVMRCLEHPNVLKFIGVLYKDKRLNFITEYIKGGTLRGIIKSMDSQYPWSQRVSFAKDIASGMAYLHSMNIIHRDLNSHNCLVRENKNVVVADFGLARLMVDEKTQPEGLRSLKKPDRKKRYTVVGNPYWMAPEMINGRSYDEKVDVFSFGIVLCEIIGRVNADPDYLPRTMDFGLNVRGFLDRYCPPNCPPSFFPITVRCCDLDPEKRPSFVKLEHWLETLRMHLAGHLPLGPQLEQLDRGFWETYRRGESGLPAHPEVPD
UniProt P53671: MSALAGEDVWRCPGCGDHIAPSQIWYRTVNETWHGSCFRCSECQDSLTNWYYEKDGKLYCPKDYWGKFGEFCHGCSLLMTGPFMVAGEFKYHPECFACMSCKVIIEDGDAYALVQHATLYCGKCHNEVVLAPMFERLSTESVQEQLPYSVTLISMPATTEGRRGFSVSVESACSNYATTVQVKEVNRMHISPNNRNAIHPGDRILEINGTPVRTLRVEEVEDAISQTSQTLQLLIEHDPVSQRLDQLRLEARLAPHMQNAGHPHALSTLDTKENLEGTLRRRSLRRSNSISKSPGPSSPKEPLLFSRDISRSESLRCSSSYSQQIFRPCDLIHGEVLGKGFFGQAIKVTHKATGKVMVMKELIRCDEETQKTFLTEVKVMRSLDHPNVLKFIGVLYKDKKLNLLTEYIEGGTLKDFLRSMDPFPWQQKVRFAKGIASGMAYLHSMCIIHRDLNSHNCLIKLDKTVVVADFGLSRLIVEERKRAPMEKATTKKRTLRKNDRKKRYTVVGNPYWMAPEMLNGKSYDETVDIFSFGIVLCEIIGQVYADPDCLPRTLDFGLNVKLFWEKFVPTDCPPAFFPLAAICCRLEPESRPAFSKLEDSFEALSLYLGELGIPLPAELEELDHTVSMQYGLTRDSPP
UniProt Q8IWU2: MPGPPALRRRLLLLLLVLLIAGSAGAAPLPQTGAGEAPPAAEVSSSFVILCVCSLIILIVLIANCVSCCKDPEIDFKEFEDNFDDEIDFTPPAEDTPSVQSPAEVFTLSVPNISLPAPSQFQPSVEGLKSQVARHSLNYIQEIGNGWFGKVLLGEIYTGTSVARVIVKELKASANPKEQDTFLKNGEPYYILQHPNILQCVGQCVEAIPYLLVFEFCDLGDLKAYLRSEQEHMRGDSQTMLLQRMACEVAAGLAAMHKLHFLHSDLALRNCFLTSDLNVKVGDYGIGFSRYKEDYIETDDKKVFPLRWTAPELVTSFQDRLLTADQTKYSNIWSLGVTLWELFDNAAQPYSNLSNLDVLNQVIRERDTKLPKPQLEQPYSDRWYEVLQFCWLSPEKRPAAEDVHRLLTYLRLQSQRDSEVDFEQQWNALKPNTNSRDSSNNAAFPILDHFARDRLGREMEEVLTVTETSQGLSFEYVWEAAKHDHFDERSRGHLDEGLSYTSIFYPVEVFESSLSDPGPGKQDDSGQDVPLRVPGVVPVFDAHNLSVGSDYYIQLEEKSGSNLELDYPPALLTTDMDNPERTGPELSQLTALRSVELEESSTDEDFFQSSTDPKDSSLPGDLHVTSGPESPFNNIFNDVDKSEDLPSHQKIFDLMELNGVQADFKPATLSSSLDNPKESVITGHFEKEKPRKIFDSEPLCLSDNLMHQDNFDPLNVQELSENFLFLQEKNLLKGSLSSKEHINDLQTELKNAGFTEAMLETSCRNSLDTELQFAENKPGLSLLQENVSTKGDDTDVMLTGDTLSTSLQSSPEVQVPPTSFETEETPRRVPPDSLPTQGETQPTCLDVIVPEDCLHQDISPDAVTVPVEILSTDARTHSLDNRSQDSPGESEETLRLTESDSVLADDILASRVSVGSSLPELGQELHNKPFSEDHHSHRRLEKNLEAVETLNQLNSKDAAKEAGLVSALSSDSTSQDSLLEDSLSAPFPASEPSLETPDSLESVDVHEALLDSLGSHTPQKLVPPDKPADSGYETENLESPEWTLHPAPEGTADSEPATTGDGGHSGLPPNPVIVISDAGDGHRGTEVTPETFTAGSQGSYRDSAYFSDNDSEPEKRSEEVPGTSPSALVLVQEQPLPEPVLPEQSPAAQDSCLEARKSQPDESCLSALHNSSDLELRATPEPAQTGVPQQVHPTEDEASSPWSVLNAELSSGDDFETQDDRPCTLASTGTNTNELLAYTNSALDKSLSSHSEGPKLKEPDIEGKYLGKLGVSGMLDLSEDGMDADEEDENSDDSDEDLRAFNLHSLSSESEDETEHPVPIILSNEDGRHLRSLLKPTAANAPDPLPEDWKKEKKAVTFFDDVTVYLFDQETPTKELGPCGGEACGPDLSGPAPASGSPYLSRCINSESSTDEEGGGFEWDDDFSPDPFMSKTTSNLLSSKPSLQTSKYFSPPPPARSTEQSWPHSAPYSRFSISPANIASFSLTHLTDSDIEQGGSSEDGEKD
UniProt P07948: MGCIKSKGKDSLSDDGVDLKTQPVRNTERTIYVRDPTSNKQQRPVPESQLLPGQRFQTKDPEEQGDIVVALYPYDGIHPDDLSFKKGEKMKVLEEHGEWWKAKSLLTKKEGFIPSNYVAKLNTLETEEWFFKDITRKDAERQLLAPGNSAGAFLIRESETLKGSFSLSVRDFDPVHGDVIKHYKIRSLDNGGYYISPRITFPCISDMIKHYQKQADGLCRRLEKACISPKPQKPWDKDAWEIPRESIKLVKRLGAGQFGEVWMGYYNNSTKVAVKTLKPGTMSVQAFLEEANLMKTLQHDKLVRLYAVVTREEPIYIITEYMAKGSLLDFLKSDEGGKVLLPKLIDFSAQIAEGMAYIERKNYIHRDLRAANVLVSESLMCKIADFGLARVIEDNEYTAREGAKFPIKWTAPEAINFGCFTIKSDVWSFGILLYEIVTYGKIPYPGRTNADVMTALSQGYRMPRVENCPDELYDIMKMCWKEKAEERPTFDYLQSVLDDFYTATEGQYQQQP
UniProt Q12851: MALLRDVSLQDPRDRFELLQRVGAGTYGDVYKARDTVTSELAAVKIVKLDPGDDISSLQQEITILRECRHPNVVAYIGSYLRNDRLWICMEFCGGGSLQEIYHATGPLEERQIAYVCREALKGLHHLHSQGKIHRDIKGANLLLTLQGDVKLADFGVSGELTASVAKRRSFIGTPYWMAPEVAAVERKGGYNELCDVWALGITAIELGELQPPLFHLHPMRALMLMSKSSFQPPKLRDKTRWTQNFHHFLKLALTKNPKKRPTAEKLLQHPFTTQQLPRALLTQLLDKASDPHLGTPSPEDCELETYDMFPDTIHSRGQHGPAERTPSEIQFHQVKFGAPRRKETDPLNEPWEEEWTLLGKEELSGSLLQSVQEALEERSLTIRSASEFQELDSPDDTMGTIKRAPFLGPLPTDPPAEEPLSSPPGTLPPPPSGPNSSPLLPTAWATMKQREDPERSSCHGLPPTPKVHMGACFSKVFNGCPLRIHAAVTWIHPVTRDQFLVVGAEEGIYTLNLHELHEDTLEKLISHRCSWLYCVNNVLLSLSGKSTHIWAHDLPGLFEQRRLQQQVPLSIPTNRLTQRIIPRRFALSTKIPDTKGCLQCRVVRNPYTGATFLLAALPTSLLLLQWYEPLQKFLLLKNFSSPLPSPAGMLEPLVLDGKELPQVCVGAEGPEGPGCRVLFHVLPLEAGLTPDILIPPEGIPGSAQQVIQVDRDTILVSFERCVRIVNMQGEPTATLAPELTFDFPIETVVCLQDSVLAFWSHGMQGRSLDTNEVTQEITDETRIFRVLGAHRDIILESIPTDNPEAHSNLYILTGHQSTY

Tests used:
Experiment in all cases: kinase-Nluc reporter destabilization hit call (1 = scored as downregulated) (binary); higher = compound decreases kinase abundance
Conditions in all cases: K562; 2-18 h
[1] = molecular target: ERN1 (UniProt O75460)
[2] = molecular target: FGFR1 (UniProt P11362)
[3] = molecular target: FGFR2 (UniProt P21802)
[4] = molecular target: FGFR3 (UniProt P22607)
[5] = molecular target: FGR (UniProt P09769)
[6] = molecular target: FLT3 (UniProt P36888)
[7] = molecular target: FYN (UniProt P06241)
[8] = molecular target: GSK3A (UniProt P49840)
[9] = molecular target: HER2 (UniProt P04626)
[10] = molecular target: INSRR (UniProt P14616)
[11] = molecular target: IRAK3 (UniProt Q9Y616)
[12] = molecular target: JAK1 (UniProt P23458)
[13] = molecular target: LCK (UniProt P06239)
[14] = molecular target: LIMK1 (UniProt P53667)
[15] = molecular target: LIMK2 (UniProt P53671)
[16] = molecular target: LMTK2 (UniProt Q8IWU2)
[17] = molecular target: LYN (UniProt P07948)
[18] = molecular target: MAP2K1 (UniProt Q02750)
[19] = molecular target: MAP2K2 (UniProt P36507)
[20] = molecular target: MAP4K2 (UniProt Q12851)

Measured: kinase-Nluc reporter destabilization hit call

COc1cc(C(=O)NC2CCN(C)CC2)c(F)cc1Nc1ncc2c(n1)N(C1CCCC1)CC(F)(F)C(=O)N2C [TAK-960 (dihydrochloride)] (2.5 µM)
inactive: [1] 0 | [2] 0 | [3] 0 | [4] 0 | [5] 0 | [6] 0 | [7] 0 | [8] 0 | [9] 0 | [10] 0 | [11] 0 | [12] 0 | [13] 0 | [14] 0 | [15] 0 | [16] 0 | [17] 0 | [18] 0 | [19] 0 | [20] 0

CC(C)(/C=C(\C#N)C(=O)N1CCC[C@@H](n2nc(-c3ccc(Oc4ccccc4)cc3F)c3c(N)ncnc32)C1)N1CCN(C2COC2)CC1 (2.5 µM)
inactive: [1] 0 | [2] 0 | [3] 0 | [4] 0 | [5] 0 | [6] 0 | [7] 0 | [8] 0 | [9] 0 | [10] 0 | [11] 0 | [12] 0 | [13] 0 | [14] 0 | [15] 0 | [16] 0 | [17] 0 | [18] 0 | [19] 0 | [20] 0

COc1cc(Oc2ccnc3cc(OC)c(OC)cc23)ccc1NC(=O)NC(C)c1nccs1 (stereo not given) (2.5 µM)
inactive: [1] 0 | [2] 0 | [3] 0 | [4] 0 | [5] 0 | [6] 0 | [7] 0 | [8] 0 | [9] 0 | [10] 0 | [11] 0 | [12] 0 | [13] 0 | [14] 0 | [15] 0 | [16] 0 | [17] 0 | [18] 0 | [19] 0 | [20] 0

NS(=O)(=O)c1ccc(Nc2nc(OCC3CCCCC3)c3[nH]cnc3n2)cc1 (10 µM)
inactive: [1] 0 | [2] 0 | [3] 0 | [4] 0 | [5] 0 | [6] 0 | [7] 0 | [8] 0 | [9] 0 | [10] 0 | [11] 0 | [12] 0 | [13] 0 | [14] 0 | [15] 0 | [16] 0 | [17] 0 | [18] 0 | [19] 0 | [20] 0

O=C1NC(=NCc2cccs2)S/C1=C\c1ccc2ncccc2c1 (10 µM)
inactive: [1] 0 | [2] 0 | [3] 0 | [4] 0 | [5] 0 | [6] 0 | [7] 0 | [8] 0 | [9] 0 | [10] 0 | [11] 0 | [12] 0 | [13] 0 | [14] 0 | [15] 0 | [16] 0 | [17] 0 | [18] 0 | [19] 0 | [20] 0

CCc1nc(-c2cccc(C)c2)c(-c2ccnc(NC(=O)c3ccccc3)c2)s1 (10 µM)
inactive: [1] 0 | [2] 0 | [3] 0 | [4] 0 | [5] 0 | [6] 0 | [7] 0 | [8] 0 | [9] 0 | [10] 0 | [11] 0 | [12] 0 | [13] 0 | [14] 0 | [15] 0 | [16] 0 | [17] 0 | [18] 0 | [19] 0 | [20] 0

N#CC(=Cc1ccc(O)c(O)c1)C(=O)NCc1ccccc1 (mixture of isomers) (10 µM)
inactive: [1] 0 | [2] 0 | [3] 0 | [4] 0 | [5] 0 | [6] 0 | [7] 0 | [8] 0 | [9] 0 | [10] 0 | [11] 0 | [12] 0 | [13] 0 | [14] 0 | [15] 0 | [16] 0 | [17] 0 | [18] 0 | [19] 0 | [20] 0

COc1cc(C(=O)NC2CCN(C)CC2)ccc1Nc1ncc2c(n1)N(C1CCCC1)CC(F)(F)C(=O)N2C (10 µM)
inactive: [1] 0 | [2] 0 | [3] 0 | [4] 0 | [5] 0 | [6] 0 | [7] 0 | [8] 0 | [9] 0 | [10] 0 | [11] 0 | [12] 0 | [13] 0 | [14] 0 | [15] 0 | [16] 0 | [17] 0 | [18] 0 | [19] 0 | [20] 0

CC[C@H](CO)Nc1nc(NCc2ccccc2)c2ncn(C(C)C)c2n1 [Seliciclib] (10 µM)
inactive: [1] 0 | [2] 0 | [3] 0 | [4] 0 | [5] 0 | [6] 0 | [7] 0 | [8] 0 | [9] 0 | [10] 0 | [11] 0 | [12] 0 | [13] 0 | [14] 0 | [15] 0 | [16] 0 | [17] 0 | [18] 0 | [19] 0 | [20] 0

2 neighbouring entries already listed, for reference:
CCc1nc(-c2cccc(C)c2)c(-c2ccnc(NC(=O)c3ccccc3)c2)s1 (10 µM)
inactive: [1] 0 | [2] 0 | [3] 0 | [4] 0 | [5] 0 | [6] 0 | [7] 0 | [8] 0 | [9] 0 | [10] 0 | [11] 0 | [12] 0 | [13] 0 | [14] 0 | [15] 0 | [16] 0 | [17] 0 | [18] 0 | [19] 0 | [20] 0

N#CC(=Cc1ccc(O)c(O)c1)C(=O)NCc1ccccc1 (mixture of isomers) (10 µM)
inactive: [1] 0 | [2] 0 | [3] 0 | [4] 0 | [5] 0 | [6] 0 | [7] 0 | [8] 0 | [9] 0 | [10] 0 | [11] 0 | [12] 0 | [13] 0 | [14] 0 | [15] 0 | [16] 0 | [17] 0 | [18] 0 | [19] 0 | [20] 0

(continued)

N#C/C(=C\c1ccc(O)c(O)c1)C(=O)NCc1ccccc1 (10 µM)
inactive: [1] 0 | [2] 0 | [3] 0 | [4] 0 | [5] 0 | [6] 0 | [7] 0 | [8] 0 | [9] 0 | [10] 0 | [11] 0 | [12] 0 | [13] 0 | [14] 0 | [15] 0 | [16] 0 | [17] 0 | [18] 0 | [19] 0 | [20] 0

O=c1oc2c(O)c(O)cc3c(=O)oc4c(O)c(O)cc1c4c23 [Ellagic acid] (10 µM)
inactive: [1] 0 | [2] 0 | [3] 0 | [4] 0 | [5] 0 | [6] 0 | [7] 0 | [8] 0 | [9] 0 | [10] 0 | [11] 0 | [12] 0 | [13] 0 | [14] 0 | [15] 0 | [16] 0 | [17] 0 | [18] 0 | [19] 0 | [20] 0

Cc1ncc(-c2ccnc(Nc3ccc(S(C)(=O)=O)cc3)n2)n1C(C)C (2.5 µM)
inactive: [1] 0 | [2] 0 | [3] 0 | [4] 0 | [5] 0 | [6] 0 | [7] 0 | [8] 0 | [9] 0 | [10] 0 | [11] 0 | [12] 0 | [13] 0 | [14] 0 | [15] 0 | [16] 0 | [17] 0 | [18] 0 | [19] 0 | [20] 0

CN(C)C(=O)/C(C#N)=C/c1ccc(-c2nc3cnc4[nH]ccc4c3n2C2CCCCC2)o1 (10 µM)
inactive: [1] 0 | [2] 0 | [3] 0 | [4] 0 | [5] 0 | [6] 0 | [7] 0 | [8] 0 | [9] 0 | [10] 0 | [11] 0 | [12] 0 | [13] 0 | [14] 0 | [15] 0 | [16] 0 | [17] 0 | [18] 0 | [19] 0 | [20] 0

COc1cc(C=C(C#N)C(N)=O)cc(CSc2nc3ccccc3s2)c1O (10 µM)
inactive: [1] 0 | [2] 0 | [3] 0 | [4] 0 | [5] 0 | [6] 0 | [7] 0 | [8] 0 | [9] 0 | [10] 0 | [11] 0 | [12] 0 | [13] 0 | [14] 0 | [15] 0 | [16] 0 | [17] 0 | [18] 0 | [19] 0 | [20] 0

CC#CC(=O)N[C@H]1CCCN(c2c(F)cc(C(N)=O)c3[nH]c(C)c(C)c23)C1 [Branebrutinib] (10 µM)
inactive: [1] 0 | [2] 0 | [3] 0 | [4] 0 | [5] 0 | [6] 0 | [7] 0 | [8] 0 | [9] 0 | [10] 0 | [11] 0 | [12] 0 | [13] 0 | [14] 0 | [15] 0 | [16] 0 | [17] 0 | [18] 0 | [19] 0 | [20] 0

COCCOc1cc2nccc(Nc3n[nH]c(C)c3C)c2cc1S(=O)(=O)C(C)(C)C [RIP2 kinase inhibitor 2] (2.5 µM)
inactive: [1] 0 | [2] 0 | [3] 0 | [4] 0 | [5] 0 | [6] 0 | [7] 0 | [8] 0 | [9] 0 | [10] 0 | [11] 0 | [12] 0 | [13] 0 | [14] 0 | [15] 0 | [16] 0 | [17] 0 | [18] 0 | [19] 0 | [20] 0

NC(=O)c1ccc2nc(-c3ccc(Oc4ccc(Cl)cc4)cc3)[nH]c2c1 (10 µM)
inactive: [1] 0 | [2] 0 | [3] 0 | [4] 0 | [5] 0 | [6] 0 | [7] 0 | [8] 0 | [9] 0 | [10] 0 | [11] 0 | [12] 0 | [13] 0 | [14] 0 | [15] 0 | [16] 0 | [17] 0 | [18] 0 | [19] 0 | [20] 0

CCN(CC)CCCCNc1ncc2cc(-c3c(Cl)cccc3Cl)c(NC(=O)NC(C)(C)C)nc2n1 (2.5 µM)
inactive: [1] 0 | [2] 0 | [3] 0 | [4] 0 | [5] 0 | [6] 0 | [7] 0 | [8] 0 | [9] 0 | [10] 0 | [11] 0 | [12] 0 | [13] 0 | [14] 0 | [15] 0 | [16] 0 | [17] 0 | [18] 0 | [19] 0 | [20] 0
